For the assay, the target named is human Rh(D) antigen on Rh(D)-positive red blood cells (human) (UniProt Q02161). Nature of the assay: agglutination, anti-M13.

Chains of the proteins cited; added tags and fusions are not shown. Residues count along the entry.
UniProt Q02161, residues 2-417: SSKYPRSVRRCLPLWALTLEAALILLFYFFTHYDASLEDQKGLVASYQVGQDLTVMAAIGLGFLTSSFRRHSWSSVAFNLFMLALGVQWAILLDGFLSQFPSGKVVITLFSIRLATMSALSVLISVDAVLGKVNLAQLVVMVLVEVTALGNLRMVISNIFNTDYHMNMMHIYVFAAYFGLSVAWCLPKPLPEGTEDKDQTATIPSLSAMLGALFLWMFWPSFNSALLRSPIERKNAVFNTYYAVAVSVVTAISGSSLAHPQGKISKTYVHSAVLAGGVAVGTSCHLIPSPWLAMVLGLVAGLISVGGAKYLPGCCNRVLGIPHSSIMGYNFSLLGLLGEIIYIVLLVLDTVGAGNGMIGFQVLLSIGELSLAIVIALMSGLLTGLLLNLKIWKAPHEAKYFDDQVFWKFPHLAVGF

For two molecules, binding results are on record in patent US8124742.

These are yes or no findings as the source states them, for the method shown. Some results given as binding are weak or reduced against the parent protein; the word gives no strength.

B1: SH17 (Fab, V domains shown)
VH: EVQLLESGGGLVQPGGSLRLSCGASGIPFVSSWMAWVRQAPGKGLEWVANIKQDGSKKNYVDSVEGRFTISRDNAKNSLYLQMDSLRAEDTRIYYCARDSLTCFDYWGQGALVTVSS
VL: AELQDPVVSVALGQTVRITCQGDGLRSYYASWYQQKPGQAPKLVMYGRNNRPSGIPGRFSGSSSGQTAALTITGTQAEDEADYYCQSRATSGNPVVFGGGTKLTVL
In the case of B1, the binding entry is listed as “binds”.

B2: SH56 (Fab, V domains shown)
VH: EVQLLESGGGVVQPGRSLRLSCAASGFTFSSYGMHWVRQAPGKGLEWVAVVYYDGSNKHYSDSVKGRFTIFRDNSKNTLYLQMDSLRAEDTAVYYCARERNFRSGYSRYYYGMDVWGPGTTVTVSS
VL: AELTQSPSSLSASVGDRVTITCRASQSISRYLNWYQQKPGKAPKLLIYAASSLQSGVPSRFSGSGSGTDFALTISSLLPEDFATYYCQQGYSTPPYSFGQGTKLEIKR
Regarding B2, the binding entry is “binds”.
